## Melanoma cell counts after drug treatment

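Human melanoma cells were exposed to a pair of drugs for 72 h in 1,536-well plates and read by automated microscopy after fixing and staining. Each value is the count of nuclei relative to DMSO-treated wells, in %, so that 100 equals the control. Every drug was used at one fixed concentration, the higher of two screened. These are primary screening values without error estimates.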 An unselected part of the screen is shown.

Compounds and concentrations:
ABT-263 (2000 nM): CC1(C)CCC(c2ccc(Cl)cc2)=C(CN2CCN(c3ccc(C(=O)NS(=O)(=O)c4ccc(N[C@H](CCN5CCOCC5)CSc5ccccc5)c(S(=O)(=O)C(F)(F)F)c4)cc3)CC2)C1
PF-562271 (400 nM): CN(c1ncccc1CNc1nc(Nc2ccc3c(c2)CC(=O)N3)ncc1C(F)(F)F)S(C)(=O)=O
BMS-536924 (1000 nM): Cc1cc(N2CCOCC2)cc2[nH]c(-c3c(NC[C@@H](O)c4cccc(Cl)c4)cc[nH]c3=O)nc12
fludarabine (1000 nM): Nc1nc(F)nc2c1ncn2[C@@H]1O[C@H](CO)[C@@H](O)[C@@H]1O
U73122 (2000 nM): COc1ccc2c(c1)CCC1C2CCC2(C)C(NCCCCCCN3C(=O)C=CC3=O)CCC12 (centres unmarked)
GSK650394 (800 nM): O=C(O)c1ccc(-c2c[nH]c3ncc(-c4ccccc4)cc23)cc1C1CCCC1
GW9662 (10000 nM): O=C(Nc1ccccc1)c1cc([N+](=O)[O-])ccc1Cl

{"pair": "PF-562271 + GSK650394", "COLO 800": 54.8, "C32": 66.1, "WM451Lu": 69.4, "COLO 829": 56.4, "COLO 792": 79.9, "WM3619": 89.6}
{"pair": "GSK650394 + BMS-536924", "COLO 800": 29.9, "C32": 86.0, "WM451Lu": 93.1, "COLO 829": 85.7, "COLO 792": 38.8, "WM3619": 79.5}
{"pair": "GW9662 + U73122", "COLO 800": 58.2, "C32": 55.5, "WM451Lu": 76.2, "COLO 829": 58.6, "COLO 792": 79.6, "WM3619": 37.2}
{"pair": "ABT-263 + GW9662", "COLO 800": 23.2, "C32": 35.8, "WM451Lu": 65.7, "COLO 829": 52.8, "COLO 792": 4.9, "WM3619": 40.6}
{"pair": "GSK650394 + GW9662", "COLO 800": 59.7, "C32": 95.9, "WM451Lu": 90.1, "COLO 829": 62.4, "COLO 792": 83.7, "WM3619": 54.7}
{"pair": "U73122 + PF-562271", "COLO 800": 72.3, "C32": 83.7, "WM451Lu": 81.3, "COLO 829": 101, "COLO 792": 101, "WM3619": 92.0}
{"pair": "U73122 + fludarabine", "COLO 800": 58.1, "C32": 91.5, "WM451Lu": 94.6, "COLO 829": 97.9, "COLO 792": 81.3, "WM3619": 97.1}
{"pair": "BMS-536924 + ABT-263", "COLO 800": 24.8, "C32": 75.0, "WM451Lu": 81.9, "COLO 829": 112, "COLO 792": 13.8, "WM3619": 81.8}
{"pair": "ABT-263 + fludarabine", "COLO 800": 25.6, "C32": 65.0, "WM451Lu": 86.5, "COLO 829": 83.0, "COLO 792": 6.3, "WM3619": 60.2}
{"pair": "fludarabine + GSK650394", "COLO 800": 70.6, "C32": 100, "WM451Lu": 82.5, "COLO 829": 82.6, "COLO 792": 56.6, "WM3619": 77.8}
{"pair": "fludarabine + GW9662", "COLO 800": 117, "C32": 89.1, "WM451Lu": 84.8, "COLO 829": 64.4, "COLO 792": 76.0, "WM3619": 62.3}
{"pair": "PF-562271 + BMS-536924", "COLO 800": 35.5, "C32": 81.6, "WM451Lu": 68.2, "COLO 829": 103, "COLO 792": 57.5, "WM3619": 112}
{"pair": "BMS-536924 + GW9662", "COLO 800": 29.4, "C32": 104, "WM451Lu": 83.1, "COLO 829": 90.2, "COLO 792": 76.8, "WM3619": 72.3}
{"pair": "fludarabine + PF-562271", "COLO 800": 147, "C32": 49.2, "WM451Lu": 49.5, "COLO 829": 56.1, "COLO 792": 40.7, "WM3619": 82.7}
{"pair": "ABT-263 + PF-562271", "COLO 800": 45.3, "C32": 39.0, "WM451Lu": 62.5, "COLO 829": 60.4, "COLO 792": 7.9, "WM3619": 59.3}
{"pair": "BMS-536924 + fludarabine", "COLO 800": 37.3, "C32": 96.2, "WM451Lu": 102, "COLO 829": 84.9, "COLO 792": 46.2, "WM3619": 93.0}
{"pair": "GSK650394 + ABT-263", "COLO 800": 40.7, "C32": 79.0, "WM451Lu": 77.8, "COLO 829": 61.3, "COLO 792": 12.4, "WM3619": 51.4}
{"pair": "BMS-536924 + U73122", "COLO 800": 25.2, "C32": 64.3, "WM451Lu": 78.9, "COLO 829": 103, "COLO 792": 73.8, "WM3619": 75.4}
{"pair": "U73122 + ABT-263", "COLO 800": 18.8, "C32": 53.0, "WM451Lu": 56.9, "COLO 829": 72.1, "COLO 792": 12.7, "WM3619": 63.7}
{"pair": "PF-562271 + GW9662", "COLO 800": 78.6, "C32": 61.9, "WM451Lu": 84.3, "COLO 829": 64.6, "COLO 792": 89.2, "WM3619": 73.1}

Some entries from above, unchanged:

- U73122 + ABT-263 | COLO 800: 18.8; C32: 53.0; WM451Lu: 56.9; COLO 829: 72.1; COLO 792: 12.7; WM3619: 63.7
- GW9662 + U73122 | COLO 800: 58.2; C32: 55.5; WM451Lu: 76.2; COLO 829: 58.6; COLO 792: 79.6; WM3619: 37.2

Source: doi:10.1371/journal.pone.0140310, primary screening data, rounded.